The values below come from US7029871.

Chains of the proteins cited; added tags and fusions are not shown. Lines headed by an entry give the natural chain unless they say otherwise; changes in a name come on top.
UniProt Q13546: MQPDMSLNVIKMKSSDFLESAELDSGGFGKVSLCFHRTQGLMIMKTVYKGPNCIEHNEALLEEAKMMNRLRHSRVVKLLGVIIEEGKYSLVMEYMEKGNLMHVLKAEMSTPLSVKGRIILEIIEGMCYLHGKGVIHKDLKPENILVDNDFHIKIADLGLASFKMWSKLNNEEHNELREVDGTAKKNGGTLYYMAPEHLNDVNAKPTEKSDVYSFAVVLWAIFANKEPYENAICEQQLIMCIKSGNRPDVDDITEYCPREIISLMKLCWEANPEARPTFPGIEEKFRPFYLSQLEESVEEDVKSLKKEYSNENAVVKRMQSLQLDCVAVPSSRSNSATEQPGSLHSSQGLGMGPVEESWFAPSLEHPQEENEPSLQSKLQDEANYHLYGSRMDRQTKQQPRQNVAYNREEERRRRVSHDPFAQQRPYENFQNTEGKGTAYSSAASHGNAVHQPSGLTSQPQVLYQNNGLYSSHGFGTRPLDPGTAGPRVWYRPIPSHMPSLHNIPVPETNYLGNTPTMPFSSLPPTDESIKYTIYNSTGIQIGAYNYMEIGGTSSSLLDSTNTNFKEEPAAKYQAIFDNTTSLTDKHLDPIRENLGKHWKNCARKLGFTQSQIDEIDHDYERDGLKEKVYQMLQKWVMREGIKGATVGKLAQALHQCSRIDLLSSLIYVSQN

These are yes or no findings as the source states them, for the method shown. Some binding calls cover weakened binding; strength is not graded here.

The assay concerns the target T1, TNF-R associated death domain protein (TRADD) (UniProt Q15628).
T1 sequence (looked up): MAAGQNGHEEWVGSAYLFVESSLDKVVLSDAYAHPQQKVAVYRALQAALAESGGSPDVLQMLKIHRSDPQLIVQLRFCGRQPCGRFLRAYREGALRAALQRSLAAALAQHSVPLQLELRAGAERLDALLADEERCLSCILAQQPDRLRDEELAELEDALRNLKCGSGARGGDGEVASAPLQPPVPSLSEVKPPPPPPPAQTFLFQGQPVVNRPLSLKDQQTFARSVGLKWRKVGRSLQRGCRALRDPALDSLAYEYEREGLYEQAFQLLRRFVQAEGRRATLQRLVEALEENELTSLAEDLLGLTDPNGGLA
Put plainly: complex found in TNF-stimulated cells; method not described.

In the case of “human Receptor Interacting Protein (hRIP) (from UniProt Q13546 1-671) (enzyme)”, the binding result is listed as “binds”.
